From paper PMC7684319
These are yes or no findings as the source states them, for the method shown. In cells and extracts the contact can be indirect. Some results given as binding are weak or reduced against the parent protein; the word gives no strength. For some of these results: Sequences can lack the tags named with a protein. One block for each molecule: values may come before it.

Amino acid sequences for entries named in this document (tags omitted).
UniProt O15042: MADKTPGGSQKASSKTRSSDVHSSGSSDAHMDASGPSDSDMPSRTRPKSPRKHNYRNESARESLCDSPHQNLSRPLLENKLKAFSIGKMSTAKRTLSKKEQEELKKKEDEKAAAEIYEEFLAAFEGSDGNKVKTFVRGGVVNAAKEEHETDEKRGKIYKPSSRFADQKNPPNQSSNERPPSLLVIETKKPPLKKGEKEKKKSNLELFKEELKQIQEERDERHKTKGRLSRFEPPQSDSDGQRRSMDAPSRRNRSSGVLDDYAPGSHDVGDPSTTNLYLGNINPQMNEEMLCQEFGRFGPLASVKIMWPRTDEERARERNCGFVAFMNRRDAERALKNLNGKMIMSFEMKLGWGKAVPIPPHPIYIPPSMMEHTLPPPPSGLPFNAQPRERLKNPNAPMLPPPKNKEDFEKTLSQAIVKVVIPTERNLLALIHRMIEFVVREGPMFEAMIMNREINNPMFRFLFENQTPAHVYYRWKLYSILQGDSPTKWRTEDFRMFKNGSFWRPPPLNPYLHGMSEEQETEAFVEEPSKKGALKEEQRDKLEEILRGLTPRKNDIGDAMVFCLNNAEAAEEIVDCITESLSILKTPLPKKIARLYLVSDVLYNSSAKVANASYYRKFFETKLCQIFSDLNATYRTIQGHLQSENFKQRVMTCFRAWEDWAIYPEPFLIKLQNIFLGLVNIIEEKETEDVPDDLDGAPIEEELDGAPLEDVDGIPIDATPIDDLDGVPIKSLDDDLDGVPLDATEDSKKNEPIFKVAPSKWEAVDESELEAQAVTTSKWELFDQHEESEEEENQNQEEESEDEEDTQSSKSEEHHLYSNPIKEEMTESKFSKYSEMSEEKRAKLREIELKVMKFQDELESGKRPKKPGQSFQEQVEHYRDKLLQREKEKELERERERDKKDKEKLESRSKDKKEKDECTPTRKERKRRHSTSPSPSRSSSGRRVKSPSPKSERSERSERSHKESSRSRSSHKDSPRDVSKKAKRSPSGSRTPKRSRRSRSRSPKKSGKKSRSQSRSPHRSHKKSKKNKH
UniProt Q6NV83: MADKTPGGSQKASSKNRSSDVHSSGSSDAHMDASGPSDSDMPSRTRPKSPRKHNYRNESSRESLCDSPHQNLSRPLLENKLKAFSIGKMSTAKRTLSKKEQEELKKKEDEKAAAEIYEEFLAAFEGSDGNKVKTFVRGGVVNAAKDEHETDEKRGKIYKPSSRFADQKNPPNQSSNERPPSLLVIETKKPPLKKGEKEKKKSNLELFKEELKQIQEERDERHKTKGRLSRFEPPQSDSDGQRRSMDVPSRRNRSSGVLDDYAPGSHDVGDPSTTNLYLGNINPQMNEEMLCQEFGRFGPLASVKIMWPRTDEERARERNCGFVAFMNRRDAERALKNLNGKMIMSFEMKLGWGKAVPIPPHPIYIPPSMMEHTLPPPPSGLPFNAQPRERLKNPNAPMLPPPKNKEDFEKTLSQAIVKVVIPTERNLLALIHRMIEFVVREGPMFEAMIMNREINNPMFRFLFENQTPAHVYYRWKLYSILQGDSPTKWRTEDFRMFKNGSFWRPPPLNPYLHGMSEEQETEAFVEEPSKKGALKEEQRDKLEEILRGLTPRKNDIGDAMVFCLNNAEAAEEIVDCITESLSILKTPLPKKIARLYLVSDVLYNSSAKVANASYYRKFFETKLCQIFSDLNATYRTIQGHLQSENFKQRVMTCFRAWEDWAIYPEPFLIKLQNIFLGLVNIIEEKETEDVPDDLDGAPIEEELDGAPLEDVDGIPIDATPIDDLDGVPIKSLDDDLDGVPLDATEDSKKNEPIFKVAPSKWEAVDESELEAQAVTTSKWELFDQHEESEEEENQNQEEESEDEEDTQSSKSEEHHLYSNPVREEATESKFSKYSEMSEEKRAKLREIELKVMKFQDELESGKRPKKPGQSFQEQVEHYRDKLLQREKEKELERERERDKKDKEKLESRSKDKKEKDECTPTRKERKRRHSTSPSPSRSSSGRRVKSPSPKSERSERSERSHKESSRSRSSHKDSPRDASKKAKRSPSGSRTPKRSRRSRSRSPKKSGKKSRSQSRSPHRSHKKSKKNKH
UniProt O35286: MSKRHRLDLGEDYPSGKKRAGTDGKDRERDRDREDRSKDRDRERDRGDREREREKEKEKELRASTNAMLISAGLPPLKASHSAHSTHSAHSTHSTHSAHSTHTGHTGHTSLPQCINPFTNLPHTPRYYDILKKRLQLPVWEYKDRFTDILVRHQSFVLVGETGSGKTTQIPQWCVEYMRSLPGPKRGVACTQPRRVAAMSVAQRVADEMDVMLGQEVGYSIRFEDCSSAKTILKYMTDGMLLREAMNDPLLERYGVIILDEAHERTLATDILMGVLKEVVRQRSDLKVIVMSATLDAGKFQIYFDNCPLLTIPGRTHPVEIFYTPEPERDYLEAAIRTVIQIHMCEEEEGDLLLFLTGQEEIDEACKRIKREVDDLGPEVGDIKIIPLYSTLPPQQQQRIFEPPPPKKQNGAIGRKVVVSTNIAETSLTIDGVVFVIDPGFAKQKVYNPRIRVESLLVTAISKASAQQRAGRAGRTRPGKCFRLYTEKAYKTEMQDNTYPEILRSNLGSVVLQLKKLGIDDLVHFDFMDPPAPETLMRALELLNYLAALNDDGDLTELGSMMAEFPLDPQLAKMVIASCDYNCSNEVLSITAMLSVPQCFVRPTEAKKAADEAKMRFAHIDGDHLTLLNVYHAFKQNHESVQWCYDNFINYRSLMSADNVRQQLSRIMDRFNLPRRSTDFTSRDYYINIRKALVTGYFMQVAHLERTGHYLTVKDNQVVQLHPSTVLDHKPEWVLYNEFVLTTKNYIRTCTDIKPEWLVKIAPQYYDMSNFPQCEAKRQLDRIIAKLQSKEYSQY

Assays:
[1] = target: T1, CHERP (mouse (endogenous in mouse EBs)) (UniProt Q8CGZ0); experiment: co-IP; anti-CHERP antibody; nuclear extracts of WT and Strap KO EBs; Western blot
T1 sequence: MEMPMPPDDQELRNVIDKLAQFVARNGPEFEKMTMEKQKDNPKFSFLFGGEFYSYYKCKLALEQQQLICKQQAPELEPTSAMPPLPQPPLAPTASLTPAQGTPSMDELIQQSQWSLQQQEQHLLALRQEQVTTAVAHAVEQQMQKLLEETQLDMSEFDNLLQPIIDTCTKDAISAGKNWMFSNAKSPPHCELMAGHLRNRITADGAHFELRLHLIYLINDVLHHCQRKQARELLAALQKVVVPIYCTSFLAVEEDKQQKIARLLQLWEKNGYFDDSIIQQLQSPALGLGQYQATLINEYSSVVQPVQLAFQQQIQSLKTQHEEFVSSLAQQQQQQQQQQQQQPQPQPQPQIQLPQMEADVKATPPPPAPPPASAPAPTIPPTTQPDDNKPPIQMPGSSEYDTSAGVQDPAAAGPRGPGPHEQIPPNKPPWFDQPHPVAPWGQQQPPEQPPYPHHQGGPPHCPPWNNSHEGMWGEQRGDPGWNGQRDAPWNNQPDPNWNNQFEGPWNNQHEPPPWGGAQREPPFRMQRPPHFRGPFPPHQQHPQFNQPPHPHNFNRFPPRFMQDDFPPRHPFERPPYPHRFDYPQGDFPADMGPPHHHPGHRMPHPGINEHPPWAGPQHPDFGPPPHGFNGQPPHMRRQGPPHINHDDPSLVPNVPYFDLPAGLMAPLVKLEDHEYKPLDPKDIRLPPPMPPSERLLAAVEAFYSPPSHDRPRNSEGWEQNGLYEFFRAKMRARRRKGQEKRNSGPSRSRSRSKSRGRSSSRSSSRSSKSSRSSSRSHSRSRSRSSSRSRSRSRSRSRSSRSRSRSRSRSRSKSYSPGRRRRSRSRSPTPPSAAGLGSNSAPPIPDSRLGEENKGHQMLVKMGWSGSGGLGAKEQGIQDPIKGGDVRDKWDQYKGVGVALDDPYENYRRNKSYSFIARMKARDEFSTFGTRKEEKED

[2] = target: T2, serine threonine kinase receptor-associated protein (STRAP) (mouse (endogenous in mouse ESCs)) (UniProt Q9Z1Z2); experiment: co-IP; anti-STRAP antibody cross-linked to beads, rotated overnight with mouse ESC nuclear extracts, with or without RNase A (100 μg/mL, 15 min) or DNase I (10 U, 30 min, 37 °C); buffer 50 mM Tris-HCl pH 7.5, 150 mM NaCl, 10 mM EDTA; rabbit IgG as negative control; Western blot
T2 sequence: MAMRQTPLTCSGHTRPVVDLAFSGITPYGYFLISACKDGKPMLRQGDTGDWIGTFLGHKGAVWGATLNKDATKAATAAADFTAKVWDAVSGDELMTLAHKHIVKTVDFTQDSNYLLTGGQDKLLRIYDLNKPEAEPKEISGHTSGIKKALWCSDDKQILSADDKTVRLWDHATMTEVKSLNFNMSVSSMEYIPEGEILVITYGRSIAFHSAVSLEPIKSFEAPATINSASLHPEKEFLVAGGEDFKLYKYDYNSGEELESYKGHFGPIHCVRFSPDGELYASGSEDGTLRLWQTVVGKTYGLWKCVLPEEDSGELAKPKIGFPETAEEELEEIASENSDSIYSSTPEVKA

[3] = target: T3, SF3B1 (mouse (endogenous in mouse ESCs and EBs)) (UniProt Q99NB9); experiment: co-IP; anti-SF3B1 antibody cross-linked to beads; nuclear extracts of WT and Strap KO mouse ESCs and EBs; Western blot
T3 sequence: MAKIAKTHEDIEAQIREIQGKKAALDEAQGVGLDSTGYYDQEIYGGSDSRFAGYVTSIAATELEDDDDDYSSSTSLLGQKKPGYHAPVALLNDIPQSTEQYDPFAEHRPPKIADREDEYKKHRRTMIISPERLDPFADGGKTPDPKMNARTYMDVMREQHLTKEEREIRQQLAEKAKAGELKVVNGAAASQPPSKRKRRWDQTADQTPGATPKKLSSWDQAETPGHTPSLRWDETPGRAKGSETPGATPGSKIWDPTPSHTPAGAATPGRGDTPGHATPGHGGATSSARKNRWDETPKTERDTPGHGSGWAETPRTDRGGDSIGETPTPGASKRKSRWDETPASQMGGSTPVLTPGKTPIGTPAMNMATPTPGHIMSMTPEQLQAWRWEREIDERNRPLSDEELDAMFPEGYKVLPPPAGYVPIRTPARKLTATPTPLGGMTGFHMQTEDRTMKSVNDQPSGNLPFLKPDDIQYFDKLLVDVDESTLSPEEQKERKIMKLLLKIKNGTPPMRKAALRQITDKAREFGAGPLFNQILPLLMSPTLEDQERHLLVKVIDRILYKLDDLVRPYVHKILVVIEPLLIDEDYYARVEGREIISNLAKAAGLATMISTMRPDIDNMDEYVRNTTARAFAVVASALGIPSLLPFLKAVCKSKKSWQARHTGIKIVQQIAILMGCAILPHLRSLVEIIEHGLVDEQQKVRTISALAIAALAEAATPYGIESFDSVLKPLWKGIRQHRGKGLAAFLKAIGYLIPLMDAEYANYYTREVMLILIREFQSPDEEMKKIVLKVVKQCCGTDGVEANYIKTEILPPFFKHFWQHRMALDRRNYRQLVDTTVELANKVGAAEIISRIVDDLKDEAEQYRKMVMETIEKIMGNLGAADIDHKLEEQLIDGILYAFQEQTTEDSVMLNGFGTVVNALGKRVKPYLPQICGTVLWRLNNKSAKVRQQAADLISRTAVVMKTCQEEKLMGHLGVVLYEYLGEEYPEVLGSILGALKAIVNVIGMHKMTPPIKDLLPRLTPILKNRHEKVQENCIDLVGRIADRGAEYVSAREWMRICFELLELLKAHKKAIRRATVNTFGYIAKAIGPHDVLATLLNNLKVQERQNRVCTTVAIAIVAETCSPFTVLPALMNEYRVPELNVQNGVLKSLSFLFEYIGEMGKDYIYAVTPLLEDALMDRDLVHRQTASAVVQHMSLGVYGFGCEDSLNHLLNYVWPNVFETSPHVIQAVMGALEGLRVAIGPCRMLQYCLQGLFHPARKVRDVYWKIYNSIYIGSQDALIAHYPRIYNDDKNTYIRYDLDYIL

SR140-HA = SR140-HA (UniProt O15042); experiment: co-IP; HEK293T cells transfected with SR140-HA and Flag-tagged STRAP constructs; lysates immunoprecipitated with anti-HA antibody, blotted with anti-Flag or anti-HA

- binding (SR140-HA): binds
B2: STRAP-Flag (protein, UniProt Q9Z1Z2 1-350)
chain: T2 sequence

- binding [2]: binds
B3: TFIIIC110 (protein, UniProt Q8BL74 1-907)
chain: MDTCGVGYVALGEADPVGSMIVVDSPGQEELSQLDVKASETSGVEASIEMSLPPPLPGFEDSSDRRLPPDQESLTRLEQQDLSSEMSKVSNTRASKPSGRRGGRTARGAKRPQQRKPPSTPLVPGLLDQSNPLSTPMPKKRSQKSKGDLLLLKLSKGLDQPESPHPKRPPEDFETPSGERPRRRAAQVALLYLQELAEELSTALPAPPLSGPKSPKVSSPTKPKKTRQASSQGEEDGSARDEDFVLQVEGEDEEESEAPSENSSDPEPVAPRSTPRGPAAGKQKPHCRGMAPNGLPNYIMAPVWKCLHLTKDLREQHHSFWEFAEWIPVAWKWQLLSELEAAPYLPQEEKSPLFSVQREGIPEDGTIYRINRFSSITAHPERWDVSFFTGGPLWALDWCPVPEGSAASQYVALFSSPDMNETHPLSQLHSGPGLLQLWGLGTLQQESCPGNRAHFVYGIACDSGCIWDLKFCPSGAWEHPETLRKAPLLPRLGLLALACSDGKVLLFSLPHPEALLAQQPPDAMKPAIYKVQCLATLQVGSVQASDPSECGQCLSLAWMPTRPHHHLAAGYYNGMVVFWNLPTNSPLQRIRLSDGSLKLYPFQCFLAHDQAVRTIQWCKANSHFLVSAGSDRKIKFWDLRRPYEPINCIKRFLSTELSWLLPYNGVTVAQDNCYASYGLCGIHYIDAGYLGFKAYFTAPRKGTVWSLSGSDWLGTVAAGDISGELIAAILPDMASNPINVKKPAERRFPIYKADLIPYQDSPEDQDYSSTSSETPNPPKARTYTETINHHYLLFQDTDLSSFHNLLRREPMLRMQEGEGHSQLCLDRLQLEAIHKVRFSPNLDSYGWLVSGGQSGLVRIHFVRGLTSPLAHRVQLESRANFNAMFQPSFPTEGPGFSPSSHCLLPNP

Second part, the molecule before the results:

Molecule: SR140 (from UniProt Q6NV83 1-1029)
- binding [1]: binds
- binding [2]: binds

Molecule: DDX15 (from UniProt O35286 1-795)
- binding [2]: no binding

B1: U2A’ (protein, UniProt P57784 1-255)
chain: MVKLTAELIEQAAQYTNAVRDRELDLRGYKIPVIENLGATLDQFDAIDFSDNEIRKLDGFPLLRRLKTLLVNNNRICRIGEGLDQALPCLTELILTNNSLVELGDLDPLASLKSLTYLSILRNPVTNKKHYRLYVIYKVPQVRVLDFQKVKLKERQEAEKMFKGKRGAQLAKDIARRSKTFNPGAGLPTDKKKGGPSAGDVEAIKNAIANASTLAEVERLKGLLQSGQIPGRERRSGPSDEGEEEIEDDTVTNGS
- binding [3]: binds
- binding [2]: binds
